The data set in a line: blood chemistry: plasma concentrations in klotho mice. The class given is in vivo.
The mark [1] stands for this setting: NH4Cl 0.28 M or acetazolamide 800 mg/l in drinking water.

SMILES strings stand for the structures.

Consider `Cl.N` [ammonium chloride, Ammonium chloride], for which, where the note is “NH4Cl 0.28 M in drinking water”, the “plasma concentration of FGF23” value is on record as “did not lead to a significant change” and the “plasma concentration of parathyroid hormone” value was “did not lead to a significant change”. Besides, under setting [1], the “plasma concentration of 1.25 (OH)2D3 (calcitriol)” value is on record as “did not lead to a significant change”.
For `CC(=O)Nc1nnc(S(N)(=O)=O)s1` [acetazolamide], under setting [1], the “Ca^++ concentration in plasma” value is recorded as “remained slightly elevated” and the “plasma concentration of 1.25 (OH)2D3 (calcitriol)” value was “Neither the concentrations of 1.25 (OH)2D3 nor phosphate are affected”.

The record behind these values is US20160346320A1, “SUBSTANCE FOR INHIBITING TISSUE CALCIFICATION, TISSUE FIBROSATION AND AGE-RELATED DISEASES” (Fresenius Kabi Deutschland GmbH, priority 2013, published 2016).
